Assay results as given in patent publication US20070037828A1, “Pyrazolopyrimidines” (priority 2003, published 2007).
Some of these results come from one statement about several compounds together. For at least one compound, name, drawing or mass did not settle the structure.

System: Puccinia recondita
Test: Puccinia test (wheat)/protective
Type: in vivo
Settings: protective, applied quantity 500 g/ha, analysis 10 days after inoculation, 100% = no infection

Structure (SMILES): CC(C)Nc1c(-c2ccsc2)c(Cl)nc2c(C#N)cnn12 [Example 39]
- activity: over 85%
